This is an account of results in PubChem BioAssay AID1273 (Columbia University Molecular Screening Center, 2008).

Structures are written as SMILES. The list shows a part of the results. These are further read-outs of the screen, such as a control signal, another cell line or another target. No call is given for them. Most of these compounds were active or inconclusive in the main read-out, so they are no random draw.

The test can be described thus: inhibitors of insulin promoter-driven GFP, primary screen, imaging, TRM-6 cells (human fetal islet line), eGFP reporter, cell count (AID 1273;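 further: cells exposed to compound for 48 h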). Particulars: measured here: cell count, toxicity, at 2 µM, reporter expression induced with tamoxifen.
For the compound `O=C(Cc1cc(=O)[nH][nH]1)N/N=C/c1c(Cl)cccc1Cl`, the normalized cell count amounted to 65.4%.
`C=CCSc1nc2ccccc2n1S(=O)(=O)c1ccc(C)cc1` gave a normalized cell count of 116%.
Under `COC(=O)C1=C2SC(C)C(=O)N2C(N)=C(C#N)C1c1ccc(OC)c(OC)c1` (centres undefined) stands 66.1%; under `COC(=O)c1ccc(C)c(NS(=O)(=O)c2ccc(OC)cc2)c1`, 2.67%.
For the compound `COc1cc(CN2CCN(Cc3ccc(C)cc3)C(CCO)C2)ccc1O` (centres undefined), the normalized cell count amounted to 98.4%.
Next, `NC(=O)c1oc2ccccc2c1NC(=O)c1ccco1`: 136%.
Under `CCSc1nc2ccccc2n1C(=O)c1ccc(S(=O)(=O)N2CCCCC2)cc1` stands 177%; under `CC(C)C(=O)Nc1ccc2c(c1)nc1n2CCSC1`, 75.4%; under `Cc1cc(C(F)(F)F)nc(SCc2ccc(C(=O)O)o2)n1`, 134%.
Under `CCOC(=O)N1CCN(C(=O)c2ccc3nc4ccsc4c(=O)n3c2)CC1` stands 159%; under `O=C(NCc1ccccc1)c1cc(-c2ccco2)on1`, 55.3%.
Consider `CCC(Sc1nc2c(cnn2-c2ccc(Cl)cc2)c(=O)[nH]1)C(=O)OC` (centres undefined), for which the normalized cell count is 106%.
Next, `O=C(Nc1ccc([N+](=O)[O-])cc1)Nc1nc(-c2ccc(Cl)s2)cs1`: 84.9%.
Next, `Nn1c(Cc2cccc3ccccc23)nnc1SCc1ccc(Cl)c(Cl)c1`: 126%.
Next, `CCOc1ccc2nc(SCC)[nH]c2c1`: 139%.
`Cc1nn(C)cc1/C=N\NC(=O)c1ccc(Cn2cc(Cl)cn2)cc1` had a normalized cell count of 115%.
With `CN1CC(=O)N(CC(=O)Nc2cccc(S(=O)(=O)N3CCOCC3)c2)C1=O`, the normalized cell count turned out to be 90%.
Under `Cn1c(=O)oc2cc(S(=O)(=O)N3CCN(c4ccc(F)cc4)CC3)ccc21` stands 50%; under `COC(=O)CSc1nc(-c2ccc(C)cc2)c2c(c1C#N)CCCC2`, 86.1%.
Next, `CCN(C(=O)c1ccc(C)c(Br)c1)c1ccccc1`: 125%; `Cc1ccc2nc(N3CCN(Cc4nnnn4C4CCCC4)CC3)c(C#N)cc2c1`: 18.2%; `CCOC(=O)c1ccccc1NC(=O)Cn1cnc2c(cnn2-c2ccc(OC)cc2)c1=O`: 84.5%.
Under `COC(=O)c1cn(CCOc2ccccc2OC)c2ccccc12` stands 119%; under `CCN(CC)C(=O)c1ccc2c(c1)N(Cc1ccccc1)C(=O)CS2=O` (centres undefined), 83.6%; under `CCOC(=O)c1c(N2CCCCC2)c2ccccc2[nH]c1=O`, 17.1%.
Turning to `Cc1ccc(C)c(S(=O)(=O)N2C(=S)NC(=O)C2C(C)C)c1` (centres undefined), the normalized cell count amounted to 69.2%.
Next, `Cc1ccc(O)c(CNn2cnnc2)c1`: 82.1%.
Take `CCC(C)N(C(=O)COC(=O)CNC(=O)c1ccccc1F)C1CCS(=O)(=O)C1` (centres undefined): the normalized cell count worked out at 80.1%.
Next, `CCOC(=O)C(C)(C)Sc1nc2c(cnn2-c2ccc(C)cc2)c(=O)[nH]1`: 8.02%.
Next, `Clc1cncc(Cl)c1N/N=C/c1ccncc1`: 171%; `O=C(Oc1ccccc1)c1cccc(COC(=O)c2cnccn2)c1`: 135%.
In turn, `COc1ccccc1N(CC(=O)NC1CCCC1)C(=O)c1csnn1` displayed a normalized cell count of 126%.
The compound `CCOC(=O)c1ccc(NS(=O)(=O)c2cc(-c3nnnn3CC)ccc2OC)cc1` returned a normalized cell count of 149%.
In the case of `CC1=CC(=O)C=C(C)C1=NOc1ccc([N+](=O)[O-])cc1`, the normalized cell count worked out at 25.7%.
Compound `O=[N+]([O-])C(C1CCS(=O)(=O)C1)C1CCS(=O)(=O)C1` (centres undefined) came in with a normalized cell count of 47.7%.
Next, `Cc1ccc(NC(=O)CSc2ccccn2)cc1S(=O)(=O)N1CCOCC1`: 70.8%; `Cc1cc(C)nc(N2CCCC(C(=O)Nc3ccc4c(c3)OCO4)C2)n1` (centres undefined): 187%; `Fc1cccc(F)c1CSc1nc2ccccc2[nH]1`: 174%.
`CC(=O)NC1=NN(C(C)=O)C(c2ccc(F)cc2)S1` (centres undefined) gave a normalized cell count of 70.3%.
Under `CCOC(=O)C1CCN(c2ncnc3nc[nH]c23)CC1` stands 113%; under `COc1ccc2ccccc2c1C(=O)/C=C\c1ccoc1`, 64.8%.
Next, `c1ccc2c(c1)Cn1c-2nc2ccccc21`: 80%; `O=C1OC(N2CCN(C/C=C/c3ccccc3)CC2)c2ccccc21` (centres undefined): 53.5%; `CCOC(=O)c1c(NC(=O)CCl)sc(C(=O)N(CC)CC)c1C`: 79.1%.
`Cc1ccnc(N2CCN(c3c4c(c(C#N)c5nc6ccccc6n35)CCC4)CC2)c1` returned a normalized cell count of 130%.
Next, `Clc1nnc(NN=C2CCCC2)c2ccccc12`: 100%.
Under `CCn1cc(C2=NC(C)CO2)c2ccccc21` (centres undefined) stands 221%.
Under `COc1ccc(C(C(=O)NCc2ccccc2)N(Cc2ccc3c(c2)OCO3)C(=O)c2cnccn2)cc1` (centres undefined) stands 92.2%.
`Cc1cc(C)n2nc(N)c(N=Nc3cccc(Cl)c3)c2n1` displayed a normalized cell count of 176%.
Next, `CSc1nc2ccccc2n1C(=O)Oc1ccccc1`: 99.3%; `CCc1nc(OCCN(C)C)c2oc3ccccc3c2n1`: 105%.
Under `COc1ccc(N(C(=O)CCl)C(C)(C(=O)Nc2c(C)cccc2C)c2ccccn2)cc1` (centres undefined) stands 121%; under `Nc1cccc(-c2nc3ccccc3[nH]2)c1`, 54.4%.
Consider `CCN(CC)CCN(C(=O)c1ccc2c(c1)CCCC2)c1nc2ccc(F)cc2s1`, for which the normalized cell count stood at 85.5%.
In the case of `Cc1ccccc1/C=N/Nc1ccnc2cc(Cl)ccc12`, the normalized cell count is 199%.
Next, `Cc1cccc(NC2=C(NCCO)C(=O)c3ccccc3C2=O)c1`: 83.5%; `CCOc1ccc(S(=O)(=O)Nc2ccncc2)c(C)c1C`: 133%; `CCCn1c(SCC(=O)N2CCc3ccccc32)nnc1-c1ccco1`: 56.6%.
Compound `O=C(CS(=O)(=O)c1ccccc1)Nc1nc(-c2ccc(F)cc2)cs1` gave a normalized cell count of 212%.
Under `Cc1cc(C)n(-c2cc(Cl)ccc2[N+](=O)[O-])n1` stands 99.7%; under `CCCN=C1CC(C)(C)CC(=O)/C1=C(/O)CCCN1C(=O)c2ccccc2C1=O`, 52.3%; under `Cn1c(=O)n(C)c2cc([N+](=O)[O-])c(N3CCN(C(=O)C(C)(C)C)CC3)cc21`, 125%.
In turn, `O=C(NCC1CCCO1)c1c(O)c2cccc3c2n(c1=O)CCC3` (centres undefined) gave a normalized cell count of 91.1%.
Compound `O=c1c2c(nc3nc(Cc4ccccc4)[nH]n13)CCC2` had a normalized cell count of 73.9%.
Under `COc1cccc(N2C(C(C)=O)=NN(c3ccccc3)C2c2ccc(N3CCOCC3)cc2)c1` (centres undefined) stands 119%; under `CNS(=O)(=O)c1ccc(Oc2ccc(S(=O)(=O)NC)cc2)cc1`, 140%.
Under `Cc1cc(C)c2nc(NNC(=O)c3cc(-c4cccs4)nc4ccccc34)sc2c1` stands 144%.
In turn, `Brc1ccc(-c2cn3ccccc3n2)s1` yielded a normalized cell count of 156%.
As to `Cc1ccc(NC(=O)Nc2cccs2)cc1`, the normalized cell count turned out to be 136%.
Under `Cn1c(Cc2ccccc2)nnc1SCC(=O)c1ccc(Br)s1` stands 108%; under `C=CCc1cccc(CNc2c(C)n(C)n(-c3ccccc3)c2=O)c1O`, 44.2%; under `CSc1nc(-c2ccc(Cl)cc2)nn1S(=O)(=O)c1ccc(Cl)cc1`, 146%.
The compound `Cc1ccnc2nc(C(=O)OCC(=O)NCCc3ccccc3)nn12` showed a normalized cell count of 129%.
Under `COc1ccc(Nc2nnc(Cc3ccccc3)c(=O)[nH]2)c(OC)c1` stands 117%.
Under `CSC1=NCCN1S(=O)(=O)c1ccc(C)cc1` stands 80.9%.
Next, `CCC(=O)n1nc(-c2ccccc2)nc1NCc1ccccc1`: 101%; `CCN(CC)S(=O)(=O)c1ccc2nc(SC)sc2c1`: 135%.
`Cc1ccc2nc(-c3cccc(N)c3)[nH]c2c1` returned a normalized cell count of 154%.
Regarding `CNC(=O)c1ccsc1NC(=O)CCS(=O)(=O)c1ccccc1`, the normalized cell count was determined as 80%.
Under `NC(=O)c1c(C(F)(F)F)cc(-c2ccccc2)nc1NCCO` stands 128%.
Under `NC(=O)c1cccnc1Nc1cccc(F)c1` stands 150%; under `C=C(C)CSCc1nc2ccccc2[nH]1`, 178%.
Under `C=C(C)C1CC=C(C)/C(=N/NC(=O)c2ccc(NC(=O)CCC)cc2)C1` (centres undefined) stands 106%.
In the case of `COc1cc(/C=C(\C#N)C(=O)NCC2CCCO2)ccc1OC(C)C` (centres undefined), the normalized cell count came out at 119%.
Compound `Nc1c(C(=O)C2CC2)sc2nc(-c3ccccc3)cc(C(F)(F)F)c12` displayed a normalized cell count of 98.6%.
Under `CCC(C)NC(=O)c1ccccc1NC(=O)COc1ccc(OC)cc1` (centres undefined) stands 20.9%; under `COc1ccccc1/C=N/NC(=O)c1ccc(NC(=O)c2ccccc2Br)cc1`, 72.7%.
Compound `Cc1ccc(NCc2ccc(O)c3ncccc23)cc1C` gave a normalized cell count of 105%.
Under `Cc1nc2c([nH]c3ccc(Br)cc32)s1` stands 131%; under `COC(=O)COc1ccc(S(=O)(=O)Nc2ccccc2SC)cc1`, 110%; under `O=c1[nH]c2ccc(Cl)cc2c(O)c1Cc1ccccc1`, 102%.
In turn, `CC(C)Nc1nc(NC(C)C)nc(N(C)C#N)n1` registered a normalized cell count of 111%.
`CCOC(=O)Nc1ccc2c(c1)N(C(=O)CCN1CCN(CCO)CC1)c1ccccc1S2`: the normalized cell count worked out at 107%.
Next, `CCOC(=O)/C=c1\s/c(=C\c2ccc(C)cc2)c(=O)n1CC(=O)NCc1ccco1`: 210%; `O=C(COC(=O)CC12CC3CC(CC(C3)C1)C2)Nc1ncc(Cl)cc1Cl`: 9.52%.
For the compound `O=C(Nc1ccc(Cl)cc1C(=O)NCC1CCCO1)c1ccco1` (centres undefined), the normalized cell count is 82.6%.
Under `CS(=O)(=O)N1CCC(C(=O)Nc2ccc(OCc3ccccc3)cc2)CC1` stands 88%; under `CC(C)c1cc(C(N)=O)c(NC(=O)C2CCC2)s1`, 103%; under `COc1cc(C2NC(=O)NC(C)=C2C(=O)OC2CCCC(C)C2)ccc1O` (centres undefined), 168%.
Consider `COc1ccc(NC(=O)c2ccc(C(=O)c3ccccc3)o2)cc1`, for which the normalized cell count is 87.5%.
Under `Cc1cc(C)cc(OCC(O)CN2CCN(Cc3ccc4c(c3)OCO4)CC2)c1` (centres undefined) stands 47.4%; under `S=C(NCCc1ccccc1)Nc1cccc2cnccc12`, 147%.
Under `CCOc1ccc(C(=O)OCC(=O)Nc2nc(OC)cc(OC)n2)cc1OCC` stands 111%; under `COc1ccc(-c2c3c(=O)n(C)c(=O)n(C)c3cn2Cc2cccnc2)cc1`, 75.9%.
Take `Cc1ccc(Nc2nc(Oc3ccc(=O)[nH]n3)nc(N(C)C)n2)cc1`: the normalized cell count amounted to 115%.
The compound `CCOc1ccc(S(=O)(=O)n2cc(-c3ccc(F)cc3)c(N)n2)cc1` gave a normalized cell count of 108%.
Next, `CC1(C)Cc2c(sc3ncnc(N)c23)CO1`: 28.6%; `O=C(c1cccc(-c2ccc(O)cc2)c1)N1CCN(c2ccc(F)cc2)CC1`: 88.6%.
Next, `COCC(=O)Nc1ccc(S(=O)(=O)NCCc2ccccc2)cc1`: 5.45%; `COC(=O)C(F)(F)Sc1c(C)[nH]c2ccccc12`: 91.8%.
Regarding `O=C(Nc1cccc(Cl)c1)/C(=C\c1cccnc1)NC(=O)c1ccco1`, the normalized cell count is 114%.
Take `Cc1ccc2[nH]c3c(NCc4ccco4)ncnc3c2c1`: the normalized cell count stood at 149%.
Next, `Cc1nn(-c2ccccc2)c(Cl)c1/C=N/NS(=O)(=O)c1ccc(Br)cc1`: 134%.
On to `COc1ccc(C(=O)NC(C(=O)NCC2CCCO2)C(C)C)cc1` (centres undefined), for which the normalized cell count turned out to be 31.4%.
